# Laboratory results reported in PubChem BioAssay AID504444 (National Center for Advancing Translational Sciences (NCATS), 2011).
# In all, about 360,000 compounds went through this assay and about 7,500 (2.1%) were called active. The shares of active, inactive and inconclusive entries below differ from those in the screen. The call rests on the fitted dose curve; in most records, active means well fitted inhibition curve with a large enough effect; inconclusive means small, poorly fitted or top-dose-only effect, or effect the other way; inactive means flat fitted curve, though single readings scatter. Where the call is inconclusive, the potency comes from a doubtful curve fit.
# Assay: Nrf2 qHTS screen for inhibitors; further: nearly all actives have a fitted effect of over 60% in size
# Details: A549 ARE-Fluc reporter, luciferase luminescence, 18-24 h; series mostly up to 46 µM
# Procedure, shortened: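 A549 ARE_Fluc cells (5000/well, 5% FBS OPTI-MEM) pre-incubated 2 h, then treated with compounds 18-24 h at 37C/5% CO2 in concentration-response. CellTiter-Fluor viability read first; BugLite luciferase luminescence after 15 min at room temperature gives Nrf2 activity.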
# Potency means the concentration at half of the fitted maximal effect.
row,Compound,Potency
1,C=CCSc1nnc(CCCCCN2C(=O)c3cccc4cccc(c34)C2=O)o1,"inconclusive: 20.6 µM [falling, single point]"
2,O=C(NCc1ccccc1)NC1(C(=O)N2CCN(c3ccccc3)CC2)CCCCC1,"inconclusive: 1.16 µM [falling, partial curve, poor fit]"
3,CCOc1cc(C2NN=C(c3ccc(C)cc3)S2)ccc1O (configuration not stated),"inconclusive: 14.6 µM [activator, partial curve, poor fit]"
4,Cn1cc(Cl)nc1C(O)c1ccccc1 (configuration not stated),"inconclusive: 0.731 µM [activator, full curve]"
5,CCOc1ccc(C(=O)N/N=C/c2ccccc2[N+](=O)[O-])cc1,"inconclusive: 1.84 µM [activator, full curve]"
6,CC(=O)Nc1cc(C)nn1-c1nc2ccccc2s1,"inconclusive: 7.31 µM [activator, partial curve]"
7,Nc1c(-c2ccccc2)n[nH]c1-c1ccccc1,"inconclusive: 3.66 µM [activator, full curve]"
8,Cc1ccc(S(=O)(=O)N2CCN(c3ncnc4scc(-c5ccc(F)cc5)c34)CC2)cc1,"inconclusive: 20.6 µM [falling, partial curve, poor fit]"
9,CN1N=C(C(=O)N2CCc3c([nH]c4ccccc34)C2c2ccccc2Cl)CCC1=O (configuration not stated),"inconclusive: 16.4 µM [activator, partial curve, poor fit]"
10,N#C/C(=C/c1ccc(N2CCCCC2)o1)C(=O)NCCc1c[nH]c2ccccc12,"inconclusive: 20.6 µM [falling, partial curve, poor fit]"
11,COc1cccc(C=NNc2nnc(NN=Cc3cccc(OC)c3OC)c3ccccc23)c1OC,"inconclusive: 18.4 µM [activator, partial curve, poor fit]"
12,Cc1ccc(CNC(=O)c2ccc3nc(N4CCCCC4)sc3c2)cc1,"inconclusive: 5.17 µM [activator, partial curve]"
13,O=C(NNc1cc(Cl)ccc1Cl)C1CCC1,inactive
14,O=C(CNC(=O)C1CCCCC1)NC1CCCCC1,"inconclusive: 20.6 µM [activator, single point]"
15,O=C(CSc1nnc(COc2ccc(Cl)cc2)n1Cc1ccco1)c1ccccc1F,active: 13 µM
16,O=S(=O)(NCCc1nnc2ccc(SCc3ccc(Cl)cc3Cl)nn12)c1ccccc1,"inconclusive: 29.1 µM [falling, single point]"
17,Fc1ccccc1NC(=S)N/N=C/c1ccccc1Br,"inconclusive: 6.51 µM [activator, partial curve]"
18,COCCNc1nnc(SCC(=O)Nc2sc3c(c2C(=O)c2ccccc2)CCCC3)s1,"inconclusive: 29.1 µM [falling, single point]"
19,COCCOC(=O)c1c(C)n(S(=O)(=O)c2ccc(C)cc2)c2ccc(NS(=O)(=O)c3ccc(C)cc3)cc12,inactive
20,O=C(NC1CCCC1)c1cc(-c2cccc(Cl)c2)on1,"inconclusive: 29.1 µM [activator, single point]"
21,COc1ccc(NC(=O)c2cnc3sccn3c2=O)cc1,"inconclusive: 20.6 µM [activator, single point]"

# A portion of the results above, for reference:
row,Compound,Potency
8,Cc1ccc(S(=O)(=O)N2CCN(c3ncnc4scc(-c5ccc(F)cc5)c34)CC2)cc1,"inconclusive: 20.6 µM [falling, partial curve, poor fit]"
9,CN1N=C(C(=O)N2CCc3c([nH]c4ccccc34)C2c2ccccc2Cl)CCC1=O (configuration not stated),"inconclusive: 16.4 µM [activator, partial curve, poor fit]"
10,N#C/C(=C/c1ccc(N2CCCCC2)o1)C(=O)NCCc1c[nH]c2ccccc12,"inconclusive: 20.6 µM [falling, partial curve, poor fit]"

# (list continues)

row,Compound,Potency
1,O=[N+]([O-])c1ccc(Cl)c(S(=O)(=O)/N=C(/Sc2ccc(Br)cc2)c2ccccc2)c1,inactive
2,COc1ccc(CSc2nc(CSC)cc(N3CCOCC3)n2)cc1,"inconclusive: 23.1 µM [falling, partial curve, poor fit]"
3,CCc1ccc(-c2csc(NC(=O)C3=COCCO3)n2)cc1,"inconclusive: 1.46 µM [activator, partial curve]"
4,O=C(CCN1C(=O)C2C3C=CC(C3)C2C1=O)N1CCN(c2cccc(Cl)c2)CC1 (configuration not stated),"inconclusive: 20.6 µM [falling, single point]"
5,CC(=O)Nc1nc2c(C)cc(NC(=O)C3CCCCC3)cc2s1,"inconclusive: 2.06 µM [activator, partial curve, poor fit]"
6,Cc1nn(Cc2ccc(F)cc2)c(C)c1NC(=O)c1cc(CC(C)C)on1,active: 20.6 µM
7,COC(=O)c1scc(-c2ccc(C)cc2)c1S(=O)(=O)Nc1cc(Cl)ccc1C,"inconclusive: 29.1 µM [falling, single point]"
8,O=C(N/N=C/c1c[nH]c2ccccc12)c1ccccc1O,"inconclusive: 29.1 µM [activator, single point]"
9,COc1ccc(NC(=O)CN2CCCN(S(=O)(=O)c3ccc(F)cc3)CC2)c(OC)c1,"inconclusive: 29.1 µM [falling, single point]"
10,N#CC1=C(SCC(=O)c2ccc(Cl)cc2)NC2=C(C(=O)CCC2)C1c1ccco1 (configuration not stated),"inconclusive: 23.1 µM [falling, single point]"
11,O=C(c1cc(-c2cccc3ccccc23)nc2ccccc12)N1CCN(CCO)CC1,"inconclusive: 18.4 µM [falling, single point]"
12,CCOC(=O)c1[nH]c2c(c1Cc1ccccc1)C(=O)CC(c1ccc(Cl)cc1)C2 (configuration not stated),"inconclusive: 29.1 µM [falling, single point]"
13,CCC1CCCCN1C(=O)CCc1nnc(Cc2cc(OC)ccc2OC)o1 (configuration not stated),"inconclusive: 16.4 µM [activator, partial curve]"
14,CCOC(=O)c1cccc(N/C=C/C(=O)c2ccc(OC)c(OC)c2)c1,inactive
15,Cc1ccc(C(=O)N/N=C2\CCc3ccccc32)c(C)c1,"inconclusive: 1.64 µM [activator, full curve]"
16,Cc1ccc(-c2nnc(Nc3ccc(O)cc3)c3ccccc23)cc1S(=O)(=O)N1CCN(C)CC1,inactive
17,S=C(S)OC1CC2CC1C1CCCC21 (configuration not stated),inactive
18,COc1cccc(C(=O)COc2cccc(NC(=O)c3ccco3)c2)c1,"inconclusive: 7.31 µM [falling, full curve, poor fit]"
19,Cc1ccc(CNC(=O)c2ccc(OCC(C)C)cc2)n1C,"inconclusive: 29.1 µM [falling, partial curve, poor fit]"
20,CCOC(=O)N1CCC(NC(=O)c2c(C)nn(-c3ccc(C)cc3)c2-n2cccc2)CC1,inactive
21,Cc1cc(=O)n2nc(N3CCC(C(=O)NC(C)c4ccccc4)CC3)sc2n1 (configuration not stated),"inconclusive: 20.6 µM [falling, single point]"
